Experimental data: the supplement of paper PMC10338343
± gives the standard deviation. The list shows a part of the results, in another mix than the full data. The uncertainty is large for many entries.

Experiments:
[1] = test system: MILI (PIWIL2) piRISC loaded with piRNA #1 (26 nt); assay: pre-steady-state target cleavage rate (min^-1); higher = faster piRNA-guided slicing of the target; details: guide: piRNA #1 5'p-UGAGGUAGUAGGUUGUAUAGUAUCCA; auxiliary factor: 500 nM mouse GTSF1
In short: (§1)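 Sequencing of uncleaved targets, normalised to depth and to weakly complementary targets, was the readout of this Cleave-'n-Seq assay. A transcribed, DNA-blocked target RNA library (0.1 nM) was mixed with 1 nM active affinity-purified piRISC carrying one synthetic guide, with or without 500 nM GTSF1 partner protein, in HEPES–potassium acetate buffer at 33 °C for 0–8 or 0–960 min. Three trials were pooled, k3 was capped at 0.0001 min^-1, and a burst-and-steady-state fit gave the pre-steady-state cleavage rate.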

[2] = test system: MIWI (PIWIL1) piRISC loaded with piRNA #1 (30 nt); assay: as above; details: guide: piRNA #1 5'p-UGAGGUAGUAGGUUGUAUAGUAUCCAGAGG; auxiliary factor: 500 nM mouse GTSF1
In short: as §1

[3] = test system: EfPiwi piRISC loaded with piRNA #1 (26 nt); assay: pre-steady-state target cleavage rate (min^-1); guide: piRNA #1 5'p-UGAGGUAGUAGGUUGUAUAGUAUCCA; MIWI and MILI are mouse PIWI proteins and EfPiwi is from a freshwater sponge; tags in brackets are library labels; higher = faster piRNA-guided slicing of the target; details: auxiliary factor: 500 nM Ephydatia muelleri Gtsf1
In short: as §1

Sequence | pre-steady-state target cleavage rate [1] | pre-steady-state target cleavage rate [2] | pre-steady-state target cleavage rate [3]
GGAGACCUAUGAUAUCAACCUACUAGCCUCA | 0.0019 ± 0.0035 | 0.000173 ± 0.014 | 0.000164 ± 0.017
GGAGACCUAUGAUUACAGCCUACUACCUCA | 0.000823 ± 0.0084 | 0.000751 ± 0.0069 | 0.00123 ± 0.0055
GGAGACCUAUGAUUACAUCGUACUACCUCA | 0.0019 ± 0.0035 | 0.00102 ± 0.0044 | 0.00113 ± 0.0058
GGAGACCAUACUAUACAACCGUACUACCUCA | 0.00349 ± 0.004 | 0.000532 ± 0.011 | 0.00209 ± 0.0042
GGAGACCUAUGAUAACAACCUACAACCACA | 0.00184 ± 0.0042 | 0.000146 ± 0.012 | 0.000152 ± 0.034
GGAGACCUAUGAUAUGUUCCAACUACCACA | 0.000404 ± 0.015 | 0.000237 ± 0.011 | 0.00012 ± 0.018
GGAGACGAUACUAUACAACCUUGAUGGAGA [g10:g24:cont:t1A] | 0.000438 ± 0.017 | 0.000709 ± 0.012 | 0.00126 ± 0.0033
GGAGACCUAUGAUUACAACCUACAACCACA | 0.00296 ± 0.0038 | 0.000241 ± 0.0091 | 0.000515 ± 0.019
GGAGACCUAUGAAUACAACCUAGUACCUCA | 0.00177 ± 0.0027 | 0.00146 ± 0.0016 | 0.00145 ± 0.0031
GGAGACCUAUGAUAUGUUGCUACUACCCUCA | 0.000268 ± 0.014 | 0.000104 ± 0.011 | 0.000562 ± 0.0062
GGAGACCUAUGAUAUGUUGCUACUACCUGCA | 0.000358 ± 0.013 | 0.000652 ± 0.0061 | 0.000238 ± 0.012
GGAGACCUAUGAAUACAACCAACAACCUCA | 0.00158 ± 0.0052 | 0.000564 ± 0.0056 | 0.000209 ± 0.026
GGAGACCUAUGAUAACAACCUUCUACGUCA | 0.000593 ± 0.0089 | 0.000223 ± 0.0074 | 0.000282 ± 0.0075
GGAGACCUAUGAUAUGUUGCUACUACACUCA | 0.000721 ± 0.012 | 0.000801 ± 0.011 | 0.00102 ± 0.0082
GGAGACCUAUGUAUACAACCGACUACCUCA | 0.00448 ± 0.0021 | 0.00117 ± 0.0032 | 0.000857 ± 0.0069
GGAGACCUAUGAUAUCAAUCUACUACCUCA | 0.000798 ± 0.0075 | 0.000138 ± 0.016 | 0.000306 ± 0.0062
GGAGACCUAUGAAUACAACCUUCUACGUCA | 0.00102 ± 0.0062 | 0.000496 ± 0.0038 | 0.000763 ± 0.0075
GGAGACCUAUGAUAUCAACCUACUACGACA | 0.000272 ± 0.015 | 0.000234 ± 0.0099 | 0.000261 ± 0.023
GGAGACCUAUGAUUACAACCUAGUUCCUCA | 0.00109 ± 0.0057 | 0.00077 ± 0.0045 | 0.00101 ± 0.0072
GGAGACCUAUGAUAUGUUGCUACUACCCCA | 0.000431 ± 0.017 | 0.000287 ± 0.0098 | 0.000321 ± 0.013
GGAGACCUAUGAUAACAUCCUAGUACCUCA | 0.000897 ± 0.0066 | 0.000139 ± 0.015 | 0.000252 ± 0.0094
GGAGACCUAUGAUAACAUCCUACUACCUCA | 0.00447 ± 0.0023 | 0.000717 ± 0.0066 | 0.000695 ± 0.0054
GGAGACCUAUGAUAACAACCUAGAACCUCA | 0.00115 ± 0.0075 | 0.000241 ± 0.015 | 0.000162 ± 0.02
GGAGACCUAUGAUUACAACCUAGUACGUCA | 0.00065 ± 0.0074 | 0.000737 ± 0.0063 | 0.00162 ± 0.0049
GGAGACCUAUGAAUACAACGUUCUACCUCA | 0.00201 ± 0.0033 | 0.000222 ± 0.016 | 0.00027 ± 0.012

Some of the entries so far, tab-delimited.
Sequence	pre-steady-state target cleavage rate [1]	pre-steady-state target cleavage rate [2]	pre-steady-state target cleavage rate [3]
GGAGACCAUACUAUACAACCGUACUACCUCA	0.00349 ± 0.004	0.000532 ± 0.011	0.00209 ± 0.0042
GGAGACCUAUGAUAACAACCUACAACCACA	0.00184 ± 0.0042	0.000146 ± 0.012	0.000152 ± 0.034
GGAGACCUAUGAUAUGUUCCAACUACCACA	0.000404 ± 0.015	0.000237 ± 0.011	0.00012 ± 0.018
GGAGACGAUACUAUACAACCUUGAUGGAGA [g10:g24:cont:t1A]	0.000438 ± 0.017	0.000709 ± 0.012	0.00126 ± 0.0033
GGAGACCUAUGAUUACAACCUACAACCACA	0.00296 ± 0.0038	0.000241 ± 0.0091	0.000515 ± 0.019
GGAGACCUAUGAAUACAACCUAGUACCUCA	0.00177 ± 0.0027	0.00146 ± 0.0016	0.00145 ± 0.0031
GGAGACCUAUGAUAUGUUGCUACUACCCUCA	0.000268 ± 0.014	0.000104 ± 0.011	0.000562 ± 0.0062
GGAGACCUAUGAUAUGUUGCUACUACCUGCA	0.000358 ± 0.013	0.000652 ± 0.0061	0.000238 ± 0.012
GGAGACCUAUGAAUACAACCAACAACCUCA	0.00158 ± 0.0052	0.000564 ± 0.0056	0.000209 ± 0.026
GGAGACCUAUGAUAACAACCUUCUACGUCA	0.000593 ± 0.0089	0.000223 ± 0.0074	0.000282 ± 0.0075
GGAGACCUAUGAUAUGUUGCUACUACACUCA	0.000721 ± 0.012	0.000801 ± 0.011	0.00102 ± 0.0082

Carrying on.

Sequence | pre-steady-state target cleavage rate [1] | pre-steady-state target cleavage rate [2] | pre-steady-state target cleavage rate [3]
GGAGACCUAUGAUAUGUAGCUACUACCUCA | 0.000625 ± 0.0061 | 0.000715 ± 0.0068 | 0.00115 ± 0.0035
GGAGAGGAUACUAUACAACGUAGUACCUCA | 0.000825 ± 0.0093 | 0.00148 ± 0.0053 | 0.00159 ± 0.0023
GGAGAGGAUACUAUACAACCUACUACCUUA | 0.19 ± 0.018 | 1.28 ± 0.066 | 0.204 ± 0.073
GGAGACCUAUGAUUACUACCUAGUACCUCA | 0.00104 ± 0.0049 | 0.000142 ± 0.014 | 0.00128 ± 0.0048
GGAGACCUAUGAUAUGAACAUACUACCUCA | 0.000153 ± 0.021 | 0.000122 ± 0.021 | 0.000704 ± 0.011
GGAGUGGAUACUAUAGAACCUACUUCCUCA | 0.00147 ± 0.0034 | 0.00111 ± 0.0044 | 0.00134 ± 0.0024
GGAGACCUAUGAUAUGUUGGUGCUACCUCA | 0.000123 ± 0.035 | 0.000404 ± 0.013 | 0.000321 ± 0.017
GGAGACCUAUGAUAACUACGUACUACCUCA | 0.000293 ± 0.0095 | 0.000274 ± 0.0067 | 0.000177 ± 0.015
GGAGACCUAUGUAUACAACCUAGUACCUGA | 0.000481 ± 0.0094 | 0.000732 ± 0.0057 | 0.000905 ± 0.0049
GGAGACCUAUGAUAUCAACCUUACUACCUCA | 0.000995 ± 0.0049 | 0.000241 ± 0.0084 | 0.000203 ± 0.01
GGAGACCUAUGAUAUGUACUUACUACCUCA | 0.00077 ± 0.0068 | 0.000657 ± 0.0059 | 0.00171 ± 0.0052
GGAGACCAUACUAUACAACCUUGAUGGAGA [g10:g23:cont:t1A] | 0.00032 ± 0.026 | 0.000171 ± 0.021 | 0.000524 ± 0.0059
GGAGACCUAUGAUAUCAACCUACAUCCUCA | 0.00192 ± 0.0031 | 0.00044 ± 0.0036 | 0.000115 ± 0.017
GGAGACCUAUGAAUACAACCUAGUUCCUCA | 0.000749 ± 0.0066 | 0.000145 ± 0.013 | 0.000662 ± 0.0061
GGAGAGGAUACUAUACAACCUACAUGGAGA [g8:g25:cont:t1A] | 0.00136 ± 0.0042 | 0.0022 ± 0.0043 | 0.00223 ± 0.0029
GGAGAGGAUACUAUACAACCUACUAGGUCA | 0.00138 ± 0.0052 | 0.00172 ± 0.0031 | 0.00277 ± 0.0032
GGAGACCUAUGAUUACUACCUUCUACCUCA | 0.0014 ± 0.0037 | 0.000383 ± 0.0052 | 0.000324 ± 0.0073
GGAGACCUAUGAAUACAAGGAACUACCUCA | 0.000923 ± 0.0074 | 0.000124 ± 0.02 | 0.000182 ± 0.013
GGAGACCUAUGAUAUCAACCUACUUCGUCA | 0.000123 ± 0.023 | 0.000137 ± 0.015 | 0.000108 ± 0.019
GGAGACCAUACUAUACAACCUACUACCUCU [g2:g23:cont:t1U] | 0.254 ± 0.024 | 1.7 ± 0.11 | 1.45 ± 0.55
GGAGACCUAUGAUUAGAACCUACUACCUCA | 0.00226 ± 0.003 | 0.000111 ± 0.029 | 0.000999 ± 0.0048
GGAGACCUAUGAUAACAUGGUACUACCUCA | 0.000213 ± 0.02 | 0.000493 ± 0.0074 | 0.00124 ± 0.006
GGAGACCUAACUAUACAACCAACUUCCUCA | 0.00214 ± 0.0076 | 0.00178 ± 0.0065 | 0.00234 ± 0.0066
GGAGACCUAUGUAUACAACCUACUUGGAGA [g7:g19:cont:t1A] | 0.00128 ± 0.0056 | 0.00107 ± 0.0047 | 0.000472 ± 0.0094
GGAGACCUAUGAUAUGUUGGUACUUCGUCA | 0.000255 ± 0.018 | 0.000439 ± 0.01 | 0.000216 ± 0.0071
